log2 fold change data for 36 targets are collected here from the supplement of paper PMC12819154, “High-throughput peptide-centric local stability assay extends protein–ligand identification to membrane proteins, tissues and bacteria” (Nature Structural & Molecular Biology, 2025).

Protein sequences, listed by entry. Tags and fused reporters are not part of them. Lines headed by an entry give the natural chain unless they say otherwise; changes in a name come on top.
UniProt Q8BMK4: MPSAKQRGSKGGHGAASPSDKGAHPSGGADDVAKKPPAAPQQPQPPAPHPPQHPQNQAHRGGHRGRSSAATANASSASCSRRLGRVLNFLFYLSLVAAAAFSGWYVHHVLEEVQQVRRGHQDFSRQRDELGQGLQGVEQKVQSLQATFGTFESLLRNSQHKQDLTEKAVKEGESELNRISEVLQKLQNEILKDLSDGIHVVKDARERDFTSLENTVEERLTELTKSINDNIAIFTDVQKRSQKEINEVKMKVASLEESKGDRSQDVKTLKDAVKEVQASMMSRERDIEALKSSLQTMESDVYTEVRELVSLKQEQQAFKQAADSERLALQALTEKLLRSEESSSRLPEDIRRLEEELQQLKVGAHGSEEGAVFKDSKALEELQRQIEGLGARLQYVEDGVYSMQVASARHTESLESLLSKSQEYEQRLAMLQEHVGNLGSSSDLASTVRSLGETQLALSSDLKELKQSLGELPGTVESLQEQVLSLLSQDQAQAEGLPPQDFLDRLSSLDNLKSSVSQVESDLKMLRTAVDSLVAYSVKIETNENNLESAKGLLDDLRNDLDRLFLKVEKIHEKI
UniProt Q8BTJ4: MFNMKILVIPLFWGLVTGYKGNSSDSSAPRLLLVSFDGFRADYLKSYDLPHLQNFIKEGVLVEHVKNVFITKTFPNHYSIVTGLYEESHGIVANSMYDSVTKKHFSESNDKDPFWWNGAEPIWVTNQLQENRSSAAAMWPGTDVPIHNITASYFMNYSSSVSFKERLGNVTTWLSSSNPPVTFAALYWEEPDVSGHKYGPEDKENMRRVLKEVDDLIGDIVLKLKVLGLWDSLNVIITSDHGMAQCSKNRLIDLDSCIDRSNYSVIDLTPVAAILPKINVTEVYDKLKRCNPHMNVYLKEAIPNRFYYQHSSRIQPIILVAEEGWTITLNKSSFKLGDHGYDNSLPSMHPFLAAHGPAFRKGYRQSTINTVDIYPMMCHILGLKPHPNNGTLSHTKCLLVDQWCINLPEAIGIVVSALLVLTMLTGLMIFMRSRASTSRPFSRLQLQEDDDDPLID
UniProt Q8BJU9: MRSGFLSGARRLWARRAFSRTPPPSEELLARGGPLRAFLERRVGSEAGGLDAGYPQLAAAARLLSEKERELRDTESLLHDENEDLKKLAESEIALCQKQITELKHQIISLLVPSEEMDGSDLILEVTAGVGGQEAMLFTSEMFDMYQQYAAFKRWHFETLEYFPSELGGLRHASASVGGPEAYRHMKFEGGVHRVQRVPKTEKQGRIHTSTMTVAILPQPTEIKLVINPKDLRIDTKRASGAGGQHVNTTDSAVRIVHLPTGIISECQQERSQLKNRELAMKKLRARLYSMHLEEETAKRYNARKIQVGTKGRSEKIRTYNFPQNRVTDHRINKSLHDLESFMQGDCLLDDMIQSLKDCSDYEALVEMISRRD
UniProt Q8BUK6: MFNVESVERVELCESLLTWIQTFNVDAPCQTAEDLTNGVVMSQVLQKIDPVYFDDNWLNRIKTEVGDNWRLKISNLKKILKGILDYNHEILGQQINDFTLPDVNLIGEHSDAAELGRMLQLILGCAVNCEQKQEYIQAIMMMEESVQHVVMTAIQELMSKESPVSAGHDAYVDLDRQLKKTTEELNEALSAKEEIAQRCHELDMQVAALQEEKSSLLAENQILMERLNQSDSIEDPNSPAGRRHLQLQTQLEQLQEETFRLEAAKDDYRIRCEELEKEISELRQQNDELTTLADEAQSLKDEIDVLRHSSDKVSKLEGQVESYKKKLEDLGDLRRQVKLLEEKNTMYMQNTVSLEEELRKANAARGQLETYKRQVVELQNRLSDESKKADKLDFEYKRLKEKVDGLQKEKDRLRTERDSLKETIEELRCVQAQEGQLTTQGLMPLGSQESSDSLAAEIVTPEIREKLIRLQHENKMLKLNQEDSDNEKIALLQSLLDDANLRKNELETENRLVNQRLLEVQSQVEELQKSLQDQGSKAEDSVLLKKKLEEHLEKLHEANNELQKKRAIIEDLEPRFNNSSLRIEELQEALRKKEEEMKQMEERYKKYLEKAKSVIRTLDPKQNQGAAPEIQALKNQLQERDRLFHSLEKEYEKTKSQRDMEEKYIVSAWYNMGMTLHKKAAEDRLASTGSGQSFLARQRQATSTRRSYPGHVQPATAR
UniProt Q8BVE3, whole entry: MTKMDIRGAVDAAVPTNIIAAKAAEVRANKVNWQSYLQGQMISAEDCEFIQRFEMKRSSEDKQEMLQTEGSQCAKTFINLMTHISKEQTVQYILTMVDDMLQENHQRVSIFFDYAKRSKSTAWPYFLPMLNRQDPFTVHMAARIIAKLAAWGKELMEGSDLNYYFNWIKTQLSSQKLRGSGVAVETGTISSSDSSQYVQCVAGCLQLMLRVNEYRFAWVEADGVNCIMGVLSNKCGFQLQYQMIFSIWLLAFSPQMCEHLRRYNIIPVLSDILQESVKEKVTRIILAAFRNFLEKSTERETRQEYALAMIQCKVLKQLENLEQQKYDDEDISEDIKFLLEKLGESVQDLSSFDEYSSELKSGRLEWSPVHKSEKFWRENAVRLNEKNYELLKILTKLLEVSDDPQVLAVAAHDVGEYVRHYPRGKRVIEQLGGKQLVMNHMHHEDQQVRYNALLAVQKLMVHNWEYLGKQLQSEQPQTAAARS
UniProt Q8BT60: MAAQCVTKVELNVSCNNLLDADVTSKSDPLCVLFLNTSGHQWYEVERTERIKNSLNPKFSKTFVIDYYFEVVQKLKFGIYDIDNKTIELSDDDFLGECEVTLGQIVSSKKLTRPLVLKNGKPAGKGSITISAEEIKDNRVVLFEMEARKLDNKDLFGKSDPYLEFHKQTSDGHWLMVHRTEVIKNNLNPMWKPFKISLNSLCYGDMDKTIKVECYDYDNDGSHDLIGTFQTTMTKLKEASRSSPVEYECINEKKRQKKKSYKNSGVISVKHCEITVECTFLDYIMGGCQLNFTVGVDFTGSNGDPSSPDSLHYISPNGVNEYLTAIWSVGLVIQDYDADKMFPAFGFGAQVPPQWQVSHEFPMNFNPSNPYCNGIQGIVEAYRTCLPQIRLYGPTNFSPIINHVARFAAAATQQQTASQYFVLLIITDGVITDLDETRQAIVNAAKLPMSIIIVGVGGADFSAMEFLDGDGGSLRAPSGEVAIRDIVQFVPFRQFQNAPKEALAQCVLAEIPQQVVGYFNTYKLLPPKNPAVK
UniProt Q8BK35, whole entry: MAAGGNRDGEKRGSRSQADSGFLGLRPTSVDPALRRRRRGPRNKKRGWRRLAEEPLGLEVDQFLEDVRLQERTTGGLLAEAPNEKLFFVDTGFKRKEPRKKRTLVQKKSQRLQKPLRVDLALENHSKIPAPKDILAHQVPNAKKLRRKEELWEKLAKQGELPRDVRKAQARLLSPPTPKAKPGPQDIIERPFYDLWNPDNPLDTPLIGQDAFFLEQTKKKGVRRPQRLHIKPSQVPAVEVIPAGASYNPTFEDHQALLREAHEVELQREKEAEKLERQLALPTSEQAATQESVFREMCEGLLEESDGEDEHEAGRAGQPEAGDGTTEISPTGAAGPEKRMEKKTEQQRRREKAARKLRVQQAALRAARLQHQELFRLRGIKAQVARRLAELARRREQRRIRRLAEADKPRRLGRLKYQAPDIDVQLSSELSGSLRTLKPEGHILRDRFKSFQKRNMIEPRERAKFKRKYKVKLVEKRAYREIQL
UniProt Q8BUR3: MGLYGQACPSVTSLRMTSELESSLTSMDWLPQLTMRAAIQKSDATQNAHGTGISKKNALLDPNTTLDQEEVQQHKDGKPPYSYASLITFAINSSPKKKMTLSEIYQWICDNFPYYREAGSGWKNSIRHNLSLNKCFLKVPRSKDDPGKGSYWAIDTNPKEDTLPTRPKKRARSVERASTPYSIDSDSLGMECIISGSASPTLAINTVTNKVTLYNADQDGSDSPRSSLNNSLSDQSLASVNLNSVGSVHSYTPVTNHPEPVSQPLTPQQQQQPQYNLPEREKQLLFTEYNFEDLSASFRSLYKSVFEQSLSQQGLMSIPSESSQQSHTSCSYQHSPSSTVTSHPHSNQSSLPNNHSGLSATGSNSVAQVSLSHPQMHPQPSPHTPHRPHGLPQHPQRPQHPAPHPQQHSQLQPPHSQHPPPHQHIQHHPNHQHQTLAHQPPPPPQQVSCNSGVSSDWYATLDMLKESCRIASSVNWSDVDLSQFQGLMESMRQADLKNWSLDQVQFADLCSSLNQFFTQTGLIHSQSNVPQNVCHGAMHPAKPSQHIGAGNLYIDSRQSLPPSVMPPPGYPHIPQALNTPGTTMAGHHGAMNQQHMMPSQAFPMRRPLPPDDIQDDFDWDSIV
UniProt Q8BP78: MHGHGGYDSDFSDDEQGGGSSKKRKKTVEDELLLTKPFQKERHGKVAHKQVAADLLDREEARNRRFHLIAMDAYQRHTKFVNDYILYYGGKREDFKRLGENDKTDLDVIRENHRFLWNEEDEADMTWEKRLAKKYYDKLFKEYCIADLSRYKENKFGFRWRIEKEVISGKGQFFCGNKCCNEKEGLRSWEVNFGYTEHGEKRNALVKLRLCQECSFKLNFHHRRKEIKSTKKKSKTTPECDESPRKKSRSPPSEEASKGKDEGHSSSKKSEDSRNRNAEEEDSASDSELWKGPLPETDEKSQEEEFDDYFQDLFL
UniProt Q8BIR2: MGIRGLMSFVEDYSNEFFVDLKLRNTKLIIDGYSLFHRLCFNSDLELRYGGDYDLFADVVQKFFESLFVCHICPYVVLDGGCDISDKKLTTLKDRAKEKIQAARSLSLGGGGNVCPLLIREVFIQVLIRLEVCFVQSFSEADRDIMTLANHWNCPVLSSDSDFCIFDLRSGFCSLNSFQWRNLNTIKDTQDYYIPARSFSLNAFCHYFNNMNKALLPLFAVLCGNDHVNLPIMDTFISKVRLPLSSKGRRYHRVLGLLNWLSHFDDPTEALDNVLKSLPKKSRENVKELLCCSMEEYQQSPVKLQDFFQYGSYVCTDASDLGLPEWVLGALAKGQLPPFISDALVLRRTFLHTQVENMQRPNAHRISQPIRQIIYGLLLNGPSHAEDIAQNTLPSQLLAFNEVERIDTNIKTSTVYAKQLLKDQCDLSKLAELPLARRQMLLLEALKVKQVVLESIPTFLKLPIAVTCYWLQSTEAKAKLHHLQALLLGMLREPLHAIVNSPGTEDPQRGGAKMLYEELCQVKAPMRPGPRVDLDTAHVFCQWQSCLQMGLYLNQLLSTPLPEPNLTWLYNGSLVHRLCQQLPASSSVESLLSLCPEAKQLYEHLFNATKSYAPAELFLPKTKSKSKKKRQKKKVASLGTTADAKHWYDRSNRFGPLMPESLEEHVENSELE
UniProt Q8BKY8: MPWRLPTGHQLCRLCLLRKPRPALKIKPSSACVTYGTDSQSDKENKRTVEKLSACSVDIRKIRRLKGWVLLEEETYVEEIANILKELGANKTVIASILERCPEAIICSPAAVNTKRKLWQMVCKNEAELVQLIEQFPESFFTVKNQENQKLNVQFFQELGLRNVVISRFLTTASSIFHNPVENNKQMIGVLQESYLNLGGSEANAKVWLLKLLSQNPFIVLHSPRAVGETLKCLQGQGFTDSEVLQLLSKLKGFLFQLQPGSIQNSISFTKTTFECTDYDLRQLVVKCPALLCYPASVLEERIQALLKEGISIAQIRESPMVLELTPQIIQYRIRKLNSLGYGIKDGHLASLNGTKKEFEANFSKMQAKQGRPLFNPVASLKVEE
UniProt Q8BIZ0: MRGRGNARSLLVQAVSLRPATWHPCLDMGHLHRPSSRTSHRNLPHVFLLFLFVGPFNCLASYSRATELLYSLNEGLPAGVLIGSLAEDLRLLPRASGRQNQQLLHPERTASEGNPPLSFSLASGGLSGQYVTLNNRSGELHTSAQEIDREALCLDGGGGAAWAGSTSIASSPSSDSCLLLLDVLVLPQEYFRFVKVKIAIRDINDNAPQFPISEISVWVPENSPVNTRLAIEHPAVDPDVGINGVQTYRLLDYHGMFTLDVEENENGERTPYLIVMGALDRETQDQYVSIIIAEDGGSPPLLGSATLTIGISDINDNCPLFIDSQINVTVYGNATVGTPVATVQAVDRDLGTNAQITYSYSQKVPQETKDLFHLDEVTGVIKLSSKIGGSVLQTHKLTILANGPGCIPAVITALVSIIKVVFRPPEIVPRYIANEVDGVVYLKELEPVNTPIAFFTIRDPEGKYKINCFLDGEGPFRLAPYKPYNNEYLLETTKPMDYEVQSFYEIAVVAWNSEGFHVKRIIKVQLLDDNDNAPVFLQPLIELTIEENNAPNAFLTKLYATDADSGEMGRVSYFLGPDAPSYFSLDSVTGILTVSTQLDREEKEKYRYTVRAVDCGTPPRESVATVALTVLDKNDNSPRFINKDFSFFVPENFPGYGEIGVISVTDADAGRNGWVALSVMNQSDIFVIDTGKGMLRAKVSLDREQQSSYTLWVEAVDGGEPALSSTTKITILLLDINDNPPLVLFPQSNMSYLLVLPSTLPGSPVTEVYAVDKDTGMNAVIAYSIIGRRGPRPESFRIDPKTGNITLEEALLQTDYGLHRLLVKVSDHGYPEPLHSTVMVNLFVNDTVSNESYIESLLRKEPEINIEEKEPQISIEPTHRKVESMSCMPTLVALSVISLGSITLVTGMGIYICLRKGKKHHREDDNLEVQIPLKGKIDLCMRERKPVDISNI

The list shows a part of the results. Small differences around the control level are noise.

Compound in this experiment: CN[C@@H]1C[C@H]2O[C@@](C)([C@@H]1OC)n1c3ccccc3c3c4c(c5c6ccccc6n2c5c31)C(=O)NC4 [staurosporine]
As to the kind of experiment: log2 fold change of tryptic peptide abundance, ligand vs vehicle (limited proteolysis) (log2 ratio); higher = more trypsin-susceptible (destabilized). As to conditions: ligand concentration: 20 uM; sample: mouse liver crude lysate; replicate design: treated separately.
On to “UniProt Q8BHY2 (peptide sequence: LLEAVLTSR, peptide start residue: 17)”, for which the log2 fold change is -0.066.
With “UniProt Q8BMK4 (peptide sequence: LALQALTEK, peptide start residue: 327)” the figure was -0.202; with “UniProt Q8BTJ4 (peptide sequence: SRASTSRPFSR, peptide start residue: 433)”, 1.59.
With “UniProt Q8BU03 (peptide sequence: EKEEEEEDEEEGDRETTIR, peptide start residue: 240)” the figure was 0.102; with “UniProt Q8BKT6 (peptide sequence: NDTSQHLSCHSVELLKPSLSR, peptide start residue: 265)”, -0.238; with “UniProt Q8BMG1 (peptide sequence: RLDGLPNSPIRK, peptide start residue: 90)”, -0.333.
With “UniProt Q8BJU9 (peptide sequence: LAESEIALCQK, peptide start residue: 88)” the figure was 0.129; with “UniProt Q8BJM7 (peptide sequence: IFYGSQTGTAK, peptide start residue: 73)”, 0.506; with “UniProt Q8BUK6 (peptide sequence: LEDLGDLRR, peptide start residue: 327)”, 0.786.
As to “UniProt Q8BL48 (peptide sequence: ASAAGAECELAR, peptide start residue: 689)”, the log2 fold change was -0.289.
Take “UniProt Q8BP56 (peptide sequence: NGQNLGYQGAK, peptide start residue: 334)”: the log2 fold change came to 0.261.
The figure for “UniProt Q8BVE3 (peptide sequence: QDPFTVHMAAR, peptide start residue: 133)” is 0.311; for “UniProt Q8BT60 (peptide sequence: VVLFEMEAR, peptide start residue: 140)” it is 0.107; for “UniProt Q8BSV3 (peptide sequence: ETQPIYLGDESMEIKK, peptide start residue: 42)” it is 0.122.
Turning to “UniProt Q8BK35 (peptide sequence: LFFVDTGFK, peptide start residue: 86)”, the log2 fold change was -0.706.
With “UniProt Q8BJG4 (peptide sequence: ELEPLREMTER, peptide start residue: 203)” the figure was -0.197; with “UniProt Q8BUR3 (peptide sequence: SDATQNAHGTGISKK, peptide start residue: 42)”, -0.175.
For “UniProt Q8BP78 (peptide sequence: LGENDKTDLDVIR, peptide start residue: 98)”, the log2 fold change was -0.181.
The figure for “UniProt Q8BIA4 (peptide sequence: HWQEELAQSQALRR, peptide start residue: 12)” is -0.269; for “UniProt Q8BL74 (peptide sequence: GLDQPESPHPK, peptide start residue: 157)” it is 0.0779.
As for “UniProt Q8BIR2 (peptide sequence: VASLGTTADAK, peptide start residue: 635)”, the log2 fold change was -0.245.
With “UniProt Q8BHZ0 (peptide sequence: HLNDESTSK, peptide start residue: 308)” the figure was 0.466.
With “UniProt Q8BTF7 (peptide sequence: LILPQLER, peptide start residue: 70)” the figure was 0.384; with “UniProt Q8BTN6 (peptide sequence: ISSVEEPR, peptide start residue: 255)”, 0.109; with “UniProt Q8BJQ2 (peptide sequence: ESQPLEENQR, peptide start residue: 289)”, 0.448.
Consider “UniProt Q8BLY7 (peptide sequence: TVGILQEAPVSLK, peptide start residue: 300)”, for which the log2 fold change is -0.407.
With “UniProt Q8BI08 (peptide sequence: VTLPAGPDILR, peptide start residue: 22)” the figure was -0.00141.
The figure for “UniProt Q8BRM2 (peptide sequence: LDCPDPGAK, peptide start residue: 352)” is 0.296; for “UniProt Q8BKY8 (peptide sequence: QGRPLFNPVASLK, peptide start residue: 370)” it is -0.292; for “UniProt Q8BML1 (peptide sequence: CSVCSATLR, peptide start residue: 1020)” it is 0.502.
Regarding “UniProt Q8BIZ0 (peptide sequence: RGPRPESFR, peptide start residue: 789)”, the log2 fold change was determined as 0.0339.
In the case of “UniProt Q8BQ47 (peptide sequence: GQSQTMATLK, peptide start residue: 121)”, the log2 fold change was -0.378.
The figure for “UniProt Q8BUR4 (peptide sequence: HQEIFDK, peptide start residue: 1706)” is 0.364; for “UniProt Q8BV49 (peptide sequence: MQDQYDR, peptide start residue: 38)” it is 0.151; for “UniProt Q8BIP0 (peptide sequence: EFLVPSREPGK, peptide start residue: 224)” it is 0.0877.
“UniProt Q8BN57 (peptide sequence: DSYHDSR, peptide start residue: 255)”: the log2 fold change was -0.388.
